# Test results published in the supplement of paper PMC4604168 (melanoma cell lines).
# This is one part of the list. Many values rest on one well or one pass, so single values are uncertain.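 Cells were imaged in 1,536-well plates, and nuclei stained with an antibody against cleaved PARP were counted against all DNA-stained nuclei to give the apoptosis fraction. Screening doses were chosen to leave most cells alive, and resting and induced cleaved-PARP levels differ strongly between cell lines.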
# System: WM1745
# Assay: cleaved PARP positive nuclei fraction relative to DMSO control; melanoma cells; higher = more apoptosis
# Settings: library dose: low library concentration; 72 h
row,Compound,cleaved PARP positive nuclei fraction
1,"Clc1ccc(Nc2nnc(Cc3ccncc3)c3ccccc23)cc1 [vatalanib] + C[C@]1(c2nc3c(C(N)=O)cccc3[nH]2)CCCN1 [Veliparib] (first compound 2 µM, partner dose 1.4 µM)",95.8%
2,"COCC[n+]1c2c(n(Cc3cnccn3)c1C)C(=O)c1ccccc1C2=O + NC(=O)Nc1cc(-c2cccc(F)c2)sc1C(=O)N[C@H]1CCCNC1 [AZD7762] (first compound 0.0004 µM, partner dose 0.02 µM)",174%
3,"Cn1c(Nc2ccc(C(F)(F)F)cc2)nc2cc(Oc3ccnc(-c4ncc(C(F)(F)F)[nH]4)c3)ccc21 + CCN(CC)CCCCNc1ncc2cc(-c3cc(OC)cc(OC)c3)c(NC(=O)NC(C)(C)C)nc2n1 [PD173074] (first compound 0.08 µM, partner dose 0.1 µM)",138%
4,"CC(C)(C)c1cnc(CSc2cnc(NC(=O)C3CCNCC3)s2)o1 + CCc1ccc(CCOc2ccc(CC3SC(=O)NC3=O)cc2)nc1 [pioglitazone] (first compound 0.01 µM, partner dose 2 µM)",106%
5,"C[C@]1(c2nc3c(C(N)=O)cccc3[nH]2)CCCN1 [Veliparib] + COc1ccc(COc2ccc(Cc3cnc(N)nc3N)cc2OC)cc1 [GW2580] (first compound 1.4 µM, partner dose 1 µM)",120%
6,"Cc1ccc(NC(=O)c2cccc(N(C)C)c2)cc1NC(=O)c1ccc(O)cc1 + NCC(=O)Nc1ccc(-n2nc(C(F)(F)F)cc2-c2ccc3c(ccc4ccccc43)c2)cc1 [OSU03012] (first compound 2 µM, partner dose 1 µM)",119%

# Reformatted: results already given
row	Compound	cleaved PARP positive nuclei fraction
2	COCC[n+]1c2c(n(Cc3cnccn3)c1C)C(=O)c1ccccc1C2=O + NC(=O)Nc1cc(-c2cccc(F)c2)sc1C(=O)N[C@H]1CCCNC1 [AZD7762] (first compound 0.0004 µM, partner dose 0.02 µM)	174%
3	Cn1c(Nc2ccc(C(F)(F)F)cc2)nc2cc(Oc3ccnc(-c4ncc(C(F)(F)F)[nH]4)c3)ccc21 + CCN(CC)CCCCNc1ncc2cc(-c3cc(OC)cc(OC)c3)c(NC(=O)NC(C)(C)C)nc2n1 [PD173074] (first compound 0.08 µM, partner dose 0.1 µM)	138%
